Data as given in PubChem BioAssay AID652243 (Drosophila RNAi Screening Center, 2013)
Test: 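Fly genes required for human androgen receptor driven transcription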 (primary screen). Cells: Drosophila S2R+ cells. Reagent: long dsRNA against Drosophila genes. Time to read-out: 72 h (48 h, then 24 h hormone). Challenge: synthetic androgen R1881 at 10 nM for 24 h. Measured: 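Firefly light from an androgen-responsive reporter and Renilla control light per well, raw and unnormalised, for each of two replicates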. Direction: firefly reporter light: higher = more light from androgen-responsive reporter; Renilla control light: higher = more constitutive control signal (cell number, transfection). Call rule: 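Across duplicate plates, a knock-down whose log firefly/Renilla ratio shifted a set fold down or up from the GFP/LacZ control mean was a hit; the downward cut appears as both 1.5 and 3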. Meaning of the calls: active = hit: reporter lowered or raised; inactive = no hit.
In all, the deposit lists about 24,000 reagents; shown is an unselected part of those that have a named target and a result. Of all reagents, 246 (1%) are marked active. 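Plates not normalised; calls are printed but the firefly/Renilla ratio behind them is not deposited; fold cut for lowering reported inconsistently.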 The raw values are shown without normalisation. Names joined by + are all predicted targets of the reagent. The record does not give: the amount of reagent.

no.	gene knocked down	amplicon	firefly reporter light, replicate 1	firefly reporter light, replicate 2	Renilla control light, replicate 1	Renilla control light, replicate 2	outcome
1	Root	DRSC15972	1.75e5	2.17e5	2.60e6	2.29e6	inactive
2	CG34021	DRSC37859	5.39e5	7.17e5	1.58e6	1.48e6	inactive
3	CG8818	DRSC07275	9.61e5	1.07e6	1.19e6	1.08e6	inactive
4	CG8818	DRSC28138	3.88e5	4.50e5	1.40e6	1.15e6	inactive
5	CG44005 + CG44004	DRSC36534	9.52e5	7.94e5	1.74e6	1.66e6	inactive
6	CG44005 + CG44004	DRSC36535	6.61e5	6.83e5	1.67e6	1.64e6	inactive
7	CG5767	DRSC06953	1.01e5	1.09e5	1.80e6	1.80e6	inactive
8	CG5767	DRSC29980	4.55e5	3.62e5	9.87e5	9.06e5	inactive
9	qm	DRSC11386	1.83e5	1.50e5	1.98e6	2.28e6	inactive
10	qm	DRSC26597	2.23e5	1.87e5	6.91e5	4.96e5	inactive
11	CG6006	DRSC13137	89109	73236	2.03e5	2.20e5	inactive
12	CG6006	DRSC15946	94502	44364	3.83e5	4.24e5	inactive
13	CG33796	DRSC38839	9.23e5	6.74e5	2.34e6	1.47e6	inactive
14	CG8229	DRSC07114	1.01e6	1.15e6	1.45e6	1.35e6	inactive
15	CG8229	DRSC27067	5.29e5	3.61e5	8.57e5	7.13e5	inactive
16	CG10481	DRSC02063	1.81e5	1.84e5	1.41e6	1.63e6	inactive
17	CG34160	DRSC38919	8.38e5	9.35e5	1.92e6	2.02e6	inactive
18	CG5282	DRSC11775	6783	19000	84554	1.18e5	inactive
19	Acox3	DRSC03251	1.17e5	87117	8.20e5	6.26e5	inactive
20	Acox3	DRSC23799	1.30e6	1.43e6	1.29e6	1.19e6	inactive
21	CG15480	DRSC02490	2.04e5	2.33e5	2.23e6	1.91e6	inactive
22	CG15480	DRSC24919	6.04e5	4.97e5	8.62e5	8.09e5	inactive
23	IntS12	DRSC15818	1.84e5	1.59e5	2.29e6	2.32e6	inactive
24	CG3625	DRSC00621	6.55e5	5.70e5	2.79e6	1.85e6	inactive

Already shown: an excerpt of the list.
no.	gene knocked down	amplicon	firefly reporter light, replicate 1	firefly reporter light, replicate 2	Renilla control light, replicate 1	Renilla control light, replicate 2	outcome
14	CG8229	DRSC07114	1.01e6	1.15e6	1.45e6	1.35e6	inactive
15	CG8229	DRSC27067	5.29e5	3.61e5	8.57e5	7.13e5	inactive
